Cleaved PARP after 72 h of treatment

Source: doi:10.1371/journal.pone.0140310, primary screening data, rounded.

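Human melanoma cells were exposed to two drugs together for 72 h in 1,536-well plates and read by automated microscopy after fixing and staining. Values are the share of nuclei positive for cleaved PARP as a percentage of the same share in the DMSO control: 100 is the control level, higher means more apoptosis. Every drug was used at one fixed concentration, the higher of two screened. The file gives one value for each pair and line, without errors, so small differences may be noise. The marker varies much from line to line, for technical or biological reasons.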 Only some of the drugs and lines screened are listed, without regard to their results.

Drug key:
LFM-A13: C/C(O)=C(\C#N)C(=O)Nc1cc(Br)ccc1Br at 10 µM
KU-0063794: COc1ccc(-c2ccc3c(N4CCOCC4)nc(N4C[C@@H](C)O[C@@H](C)C4)nc3n2)cc1CO at 0.1 µM
bortezomib: CC(C)C[C@H](NC(=O)[C@H](Cc1ccccc1)NC(=O)c1cnccn1)B(O)O at 0.005 µM
tipifarnib: Cn1cncc1[C@@](N)(c1ccc(Cl)cc1)c1ccc2c(c1)c(-c1cccc(Cl)c1)cc(=O)n2C at 0.05 µM
OSU-03012: NCC(=O)Nc1ccc(-n2nc(C(F)(F)F)cc2-c2ccc3c(ccc4ccccc43)c2)cc1 at 5 µM
docetaxel: CC(=O)O[C@@]12CO[C@@H]1C[C@H](O)[C@@]1(C)C(=O)[C@H](O)C3=C(C)[C@@H](OC(=O)[C@H](O)[C@@H](NC(=O)OC(C)(C)C)c4ccccc4)C[C@@](O)([C@@H](OC(=O)c4ccccc4)[C@H]21)C3(C)C at 0.0005 µM
BI-78D3: O=c1[nH]nc(Sc2ncc([N+](=O)[O-])s2)n1-c1ccc2c(c1)OCCO2 at 1 µM
sorafenib: CNC(=O)c1cc(Oc2ccc(NC(=O)Nc3ccc(Cl)c(C(F)(F)F)c3)cc2)ccn1 at 2 µM
dovitinib: CN1CCN(c2ccc3nc(-c4c(N)c5c(F)cccc5[nH]c4=O)[nH]c3c2)CC1 at 0.5 µM
SNS-032: CC(C)(C)c1cnc(CSc2cnc(NC(=O)C3CCNCC3)s2)o1 at 0.05 µM

Drugs | IST-MEL1 | LOX IMVI | WM1716 | COLO 792 | G-361 | WM451Lu
SNS-032 + LFM-A13 | 66.6 | 96.2 | 34.3 | 70.1 | 87.3 | 65.8
SNS-032 + dovitinib | 245 | 153 | 121 | 221 | 137 | 280
sorafenib + docetaxel | 330 | 152 | 303 | 1350 | 1160 | 1050
KU-0063794 + BI-78D3 | 230 | 107 | 21.7 | 156 | 105 | 69.4
BI-78D3 + SNS-032 | 37.3 | 70.5 | 113 | 157 | 79.5 | 68.4
LFM-A13 + KU-0063794 | 146 | 108 | 32.7 | 131 | 211 | 28.5
tipifarnib + OSU-03012 | 126 | 26.3 | 62.8 | 237 | 98.0 | 261
BI-78D3 + bortezomib | 630 | 295 | 13100 | 186 | 8600 | 491
LFM-A13 + BI-78D3 | 123 | 78.8 | 72.1 | 78.3 | 147 | 188
docetaxel + SNS-032 | 122 | 248 | 1190 | 1270 | 1220 | 948
LFM-A13 + docetaxel | 311 | 108 | 620 | 406 | 829 | 993
SNS-032 + tipifarnib | 39.2 | 129 | 173 | 229 | 81.1 | 101
bortezomib + KU-0063794 | 558 | 162 | 9560 | 226 | 8380 | 1010
OSU-03012 + SNS-032 | 147 | 167 | 72.6 | 333 | 115 | 52.7
sorafenib + dovitinib | 155 | 179 | 93.8 | 129 | 99.2 | 106
BI-78D3 + tipifarnib | 57.5 | 66.1 | 110 | 61.4 | 74.7 | 118
BI-78D3 + sorafenib | 69.6 | 74.2 | 37.0 | 81.3 | 132 | 176
tipifarnib + KU-0063794 | 154 | 136 | 59.6 | 135 | 121 | 514
OSU-03012 + sorafenib | 159 | 438 | 95.9 | 197 | 90.0 | 56.0
dovitinib + docetaxel | 248 | 97.6 | 406 | 856 | 1010 | 383
SNS-032 + KU-0063794 | 126 | 96.4 | 38.1 | 183 | 129 | 263
BI-78D3 + dovitinib | 97.5 | 339 | 28.7 | 146 | 136 | 86.3
OSU-03012 + bortezomib | 291 | 209 | 11700 | 506 | 8450 | 934
sorafenib + KU-0063794 | 351 | 166 | 130 | 42.7 | 167 | 81.7

Some entries from above, unchanged:

Drugs,IST-MEL1,LOX IMVI,WM1716,COLO 792,G-361,WM451Lu
bortezomib + KU-0063794,558,162,9560,226,8380,1010
SNS-032 + LFM-A13,66.6,96.2,34.3,70.1,87.3,65.8